{"source": "paper doi:10.1101/2023.08.10.549595", "binders": {"B1": {"name": "Hus1 (protein, UniProt Q8JHD8 1-282)", "chain": "MRFRSKIVDVSCLNHFTRVINTITKLTKTCTLRLTSSNLYFILTDKVANGGVSMWCELSQGNFFDEYQMEGVCVEQNEIFLELIPENLSRALKTAQNSKSVKIKLTNKHCPCLTVALELPSLSSSSRIVTHDIPVSVIPRRLWNDFKEPSVPEFDVSIYLPALKTMKNVVERMKNLSNFIVIEANRNGEMNLKIETDLVSVSTHFKDLGNPPWVSDDASQNSTQEKDTMAEARIDIRKLLQFLAGQQVNPTKAICNIVHKRMVHFILLHEDVSLQYFIPALA"}}, "molecular_target": "FLAG-TEV-Rad9 (Xenopus laevis)", "assay": "co-purification", "note": "No constants are given. Whether binding was seen depends on the method and setting. Binding seen in cells or lysates may run through a third protein. A result given as binding can be weak or reduced; the word gives no strength.", "data": [{"binder": "B1", "values": [{"measurement": "binding", "value": "binds"}]}]}
